Some entries share one result that the patent states for a list of compounds. Positions of bridges follow the written chain, without caps; N, C: chain ends. *: point of attachment. Biotin = O=C1N[C@H]2[C@H](CS[C@H]2CCCCC(=O)*)N1
Key:
[1] = test system: bovine capillary endothelial cells (BCEC); assay: Migration of bovine vascular endothelial cells (release of active TGF-β from latent TGF-β); assay type: cell-based; conditions: 24 hours
Protocol: The following procedure was carried out according to the method of Sato, et al. [Journal of Cell Biology, 123, 1249 (1993)]. were scraped with a razor, the remaining cells were washed with PBS (−), followed by incubation in DMEM containing 0.1% BSA and a test compound. After 24 hours, the number of the cells which migrated in four fileds of a microscope (IX70, Olympus) was counted for each dish. The test compound was added in the same manner as in Test Example 1. The migration of cells was inhibited and the release of active TGF-β from latent TGF-β was promoted by Compounds 3 and 5 to 9 at a concentration of 50 μg/ml.

[2] = test system: bovine vascular smooth muscle cells, porcine vascular smooth muscle cells, bovine capillary endothelial cells or bovine aortic endothelial cells; assay: Degree of binding of TGF-β to cells, summary of FIGS. 1 and 2 and Tables 3 to 6; assay type: cell-based; conditions: concentration of 100 μg/ml; FIGS. 1 and 2, Tables 4 to 6

Substance | migration of cells ([1]; concentration of 100 μg/ml) | degree of binding of TGF-β to cells [2] | migration of cells ([1]; concentration of 50 μg/ml)
H-LSTSKTIDMELVKRKRIEAIRG-OH [Compound 4] | inhibited | – | –
Biotin-GRRLKLKVEQHVELYQKYSNNSWR-OH [Compound 16] | – | increased | –
H-LSTCKTIDMELVKRKR-OH [Compound 14] | – | increased | –
H-LSTSKTIDMELVKR-OH [Compound 8] | – | increased | inhibited
H-LSTSKTIDMELVKRKRI-OH [Compound 7] | – | increased | inhibited
H-TIDMELVKRKRIEAIRG-OH [Compound 5] | – | increased | inhibited
H-LKLKVEQHVELYQKYSNNSWR-OH [Compound 15] | – | increased | –
Biotin-CVLLSRAELRLLRRLKLKC-OH (disulfide 1-19) [Compound 13] | – | increased | –
H-LSTSKTIDMELV-OH [Compound 9] | – | increased | inhibited
H-PVLLSRAELRLLRRLKLKVEQHVC-OH [Compound 2] | – | increased | –
H-LVKRKRIEAIRG-OH [Compound 6] | – | increased | inhibited
H-LQSSRHRRALDTNYSFSSTEKNC-OH [Compound 1] | – | increased | –
